No constants are given. Whether binding was seen depends on the method and setting. In cells and extracts the contact can be indirect. Binding can be weak; no strength is given.

Sequences of proteins named here, by UniProt entry; tags and fusion partners are left off. A change or cut given only in a name is not applied to a line headed by its entry.
UniProt Q2LKW6: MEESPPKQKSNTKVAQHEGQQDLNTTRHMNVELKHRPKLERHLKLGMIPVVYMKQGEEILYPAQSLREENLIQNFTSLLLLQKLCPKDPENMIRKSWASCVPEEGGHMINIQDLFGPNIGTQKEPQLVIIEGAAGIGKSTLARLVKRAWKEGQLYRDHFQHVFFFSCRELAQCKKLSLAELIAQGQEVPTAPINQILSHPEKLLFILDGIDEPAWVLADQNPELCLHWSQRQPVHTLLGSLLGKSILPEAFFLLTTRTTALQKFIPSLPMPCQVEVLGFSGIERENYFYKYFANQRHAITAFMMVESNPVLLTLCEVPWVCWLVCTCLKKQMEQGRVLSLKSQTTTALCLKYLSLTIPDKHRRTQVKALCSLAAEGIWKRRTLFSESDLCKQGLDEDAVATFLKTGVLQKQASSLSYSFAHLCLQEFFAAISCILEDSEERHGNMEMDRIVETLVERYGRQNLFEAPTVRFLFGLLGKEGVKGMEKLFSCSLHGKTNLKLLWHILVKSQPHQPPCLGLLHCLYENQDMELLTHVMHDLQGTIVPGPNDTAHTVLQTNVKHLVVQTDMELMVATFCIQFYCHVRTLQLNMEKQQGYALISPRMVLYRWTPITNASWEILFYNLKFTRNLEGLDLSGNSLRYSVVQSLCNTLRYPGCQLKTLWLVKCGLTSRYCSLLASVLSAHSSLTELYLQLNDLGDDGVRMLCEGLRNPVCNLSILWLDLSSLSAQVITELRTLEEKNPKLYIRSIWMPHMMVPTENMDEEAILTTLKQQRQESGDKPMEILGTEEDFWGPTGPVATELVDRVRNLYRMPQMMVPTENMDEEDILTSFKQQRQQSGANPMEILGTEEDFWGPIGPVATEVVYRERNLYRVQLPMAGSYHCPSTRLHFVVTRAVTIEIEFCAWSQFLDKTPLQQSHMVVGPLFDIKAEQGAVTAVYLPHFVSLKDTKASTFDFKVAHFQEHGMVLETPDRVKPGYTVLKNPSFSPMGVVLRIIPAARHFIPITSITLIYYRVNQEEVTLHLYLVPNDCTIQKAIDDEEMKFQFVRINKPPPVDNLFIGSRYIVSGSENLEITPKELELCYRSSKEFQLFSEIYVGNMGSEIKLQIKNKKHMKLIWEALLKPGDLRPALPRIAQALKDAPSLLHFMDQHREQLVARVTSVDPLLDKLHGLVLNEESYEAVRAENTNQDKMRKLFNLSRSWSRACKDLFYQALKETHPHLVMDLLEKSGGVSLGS

This assay concerns the target T1, Caspase-1 (UniProt P29452).
T1 sequence: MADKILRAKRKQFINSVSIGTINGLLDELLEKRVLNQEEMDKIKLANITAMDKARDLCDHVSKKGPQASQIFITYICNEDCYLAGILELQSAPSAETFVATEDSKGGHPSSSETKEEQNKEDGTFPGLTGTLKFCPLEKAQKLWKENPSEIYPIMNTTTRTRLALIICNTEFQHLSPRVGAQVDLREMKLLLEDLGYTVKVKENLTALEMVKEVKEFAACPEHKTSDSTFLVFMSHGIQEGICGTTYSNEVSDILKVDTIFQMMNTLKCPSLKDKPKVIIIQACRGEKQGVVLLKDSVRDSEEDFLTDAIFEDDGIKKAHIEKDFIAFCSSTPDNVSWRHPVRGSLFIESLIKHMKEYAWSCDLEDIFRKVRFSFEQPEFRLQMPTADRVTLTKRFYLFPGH
The assay can be described thus: co-IP.
Consider “NLRP1B full length FIIND(ZU5+UPA)-CARD (745-1233) (from UniProt Q2LKW6) (domain or fragment)”, for which the binding result was “no binding”.

For the substance “NLRP1B FIIND(UPA)-CARD fragment (986-1233) (from UniProt Q2LKW6) (domain or fragment)”, the binding entry was “binds”.

As for “NLRP1B CARD domain (1143-1233) (from UniProt Q2LKW6) (domain or fragment)”, the binding result is listed as “no binding”.

Consider “NLRP1B FIIND(UPA)-CARD truncation (1124-1233) (from UniProt Q2LKW6) (domain or fragment)”, for which the binding result is reported as “no binding”.

Source of the values: doi:10.1101/317834.
